# Measurements: patent US20020110853A1
# These are yes or no findings as the source states them, for the method shown. In cells and extracts the contact can be indirect. Some entries that bind do so weakly or less than the wild type. Sequences can lack the tags named with a protein.
# T1: GST fusion of the C-terminal 29 amino acids of TWEAKR (TWEAKR cytoplasmic domain) (human)
# T1 sequence: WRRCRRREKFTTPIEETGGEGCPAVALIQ
# Biological target: T1, GST fusion of the C-terminal 29 amino acids of TWEAKR (TWEAKR cytoplasmic domain) (human)
# Test: GST pull-down of 35S-labeled TRAF from reticulocyte lysate, SDS-PAGE, autoradiography
binder,measurement,value
"TRAF 1 (protein, UniProt Q13077 1-416, looked up, 35S-methionine/cysteine labeled) MASSSGSSPRPAPDENEFPFGCPPTVCQDPKEPRALCCAGCLSENPRNGEDQICPKCRGEDLQSISPGSRLRTQEKAHPEVAEAGIGCPFAGVGCSFKGSPQSVQEHEVTSQTSHLNLLLGFMKQWKARLGCGLESGPMALEQNLSDLQLQAAVEVAGDLEVDCYRAPCSESQEELALQHFMKEKLLAELEGKLRVFENIVAVLNKEVEASHLALATSIHQSQLDRERILSLEQRVVELQQTLAQKDQALGKLEQSLRLMEEASFDGTFLWKITNVTRRCHESACGRTVSLFSPAFYTAKYGYKLCLRLYLNGDGTGKRTHLSLFIVIMRGEYDALLPWPFRNKVTFMLLDQNNREHAIDAFRPDLSSASFQRPQSETNVASGCPLFFPLSKLQSPKHAYVKDDTMFLKCIVETST",binding,binds
